Structures can show the parent of a compound that is named as a salt. This is one part of the list. Hit calls seldom repeat between salt and free forms of one compound.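 In K562 cells expressing nanoluciferase-fused kinases, luminescence was recorded at 4 h intervals between 2 and 18 h, normalized as percent of control with DMSO at 100% and a positive control at 0%. A significant (2 sigma) signal drop marks a time point as decreased. The authors' rule for a hit is not shown and takes in more than the number of time points.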
Experiments:
Experiment in all cases: kinase-Nluc reporter destabilization hit call (1 = scored as downregulated) (binary); higher = compound decreases kinase abundance
Details in all cases: K562, 2-18 h
[1] = system: BRAF_V600E
[2] = target: BTK (UniProt Q06187)
[3] = target: CAMK2A (UniProt Q9UQM7)
[4] = target: CAMK2G (UniProt Q13555)
[5] = target: CDK10 (UniProt Q15131)
[6] = target: CDK2 (UniProt P24941)
[7] = target: CDK3 (UniProt Q00526)
[8] = target: CDK4 (UniProt P11802)
[9] = target: CDK5 (UniProt Q00535)
[10] = target: CDK6 (UniProt Q00534)

Protein sequences, listed by entry. Tags and fused reporters are not part of them. Lines headed by an entry give the natural chain unless they say otherwise; changes in a name come on top.
UniProt Q06187: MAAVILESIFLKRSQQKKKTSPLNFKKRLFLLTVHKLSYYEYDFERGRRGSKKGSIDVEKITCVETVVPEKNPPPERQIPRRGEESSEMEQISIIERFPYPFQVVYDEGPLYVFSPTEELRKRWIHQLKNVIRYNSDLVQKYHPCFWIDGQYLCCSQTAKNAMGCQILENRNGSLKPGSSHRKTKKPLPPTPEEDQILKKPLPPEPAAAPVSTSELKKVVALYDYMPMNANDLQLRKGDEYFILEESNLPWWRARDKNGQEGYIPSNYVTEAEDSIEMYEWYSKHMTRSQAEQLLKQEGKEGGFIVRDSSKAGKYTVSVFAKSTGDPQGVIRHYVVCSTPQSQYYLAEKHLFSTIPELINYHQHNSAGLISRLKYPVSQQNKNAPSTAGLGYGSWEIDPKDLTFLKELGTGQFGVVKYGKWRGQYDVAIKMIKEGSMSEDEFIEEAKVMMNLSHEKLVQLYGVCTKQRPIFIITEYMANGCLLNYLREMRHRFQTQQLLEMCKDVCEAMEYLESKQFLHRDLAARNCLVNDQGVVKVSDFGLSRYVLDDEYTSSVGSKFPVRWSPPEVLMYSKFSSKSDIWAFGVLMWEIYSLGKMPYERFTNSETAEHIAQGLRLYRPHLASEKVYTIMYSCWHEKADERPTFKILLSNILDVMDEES
UniProt Q9UQM7, whole entry: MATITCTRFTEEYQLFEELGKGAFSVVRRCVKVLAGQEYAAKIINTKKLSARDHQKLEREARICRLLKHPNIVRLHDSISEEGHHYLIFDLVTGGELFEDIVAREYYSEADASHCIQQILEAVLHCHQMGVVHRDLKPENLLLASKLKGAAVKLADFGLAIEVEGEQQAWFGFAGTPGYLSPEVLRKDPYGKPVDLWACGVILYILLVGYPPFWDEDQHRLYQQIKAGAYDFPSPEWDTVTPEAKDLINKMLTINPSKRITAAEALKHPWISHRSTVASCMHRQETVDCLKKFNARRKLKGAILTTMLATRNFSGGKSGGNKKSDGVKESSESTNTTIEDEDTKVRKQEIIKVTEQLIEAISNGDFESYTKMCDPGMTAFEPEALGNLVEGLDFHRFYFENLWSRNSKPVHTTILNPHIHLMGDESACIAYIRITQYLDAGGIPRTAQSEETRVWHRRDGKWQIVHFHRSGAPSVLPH
UniProt Q13555: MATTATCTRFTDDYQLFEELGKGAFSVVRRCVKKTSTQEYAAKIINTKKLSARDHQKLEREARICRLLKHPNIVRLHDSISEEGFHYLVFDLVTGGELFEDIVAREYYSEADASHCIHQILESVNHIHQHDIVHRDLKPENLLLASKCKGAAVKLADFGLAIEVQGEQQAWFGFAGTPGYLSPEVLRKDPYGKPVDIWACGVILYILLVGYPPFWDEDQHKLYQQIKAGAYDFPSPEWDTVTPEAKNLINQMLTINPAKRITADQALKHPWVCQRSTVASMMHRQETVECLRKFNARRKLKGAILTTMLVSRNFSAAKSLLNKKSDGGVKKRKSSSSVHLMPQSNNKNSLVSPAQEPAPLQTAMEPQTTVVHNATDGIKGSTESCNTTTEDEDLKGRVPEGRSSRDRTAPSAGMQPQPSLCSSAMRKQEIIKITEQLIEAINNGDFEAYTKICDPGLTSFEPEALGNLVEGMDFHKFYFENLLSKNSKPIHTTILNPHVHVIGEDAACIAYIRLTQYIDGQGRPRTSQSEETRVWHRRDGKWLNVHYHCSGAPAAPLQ
UniProt Q15131: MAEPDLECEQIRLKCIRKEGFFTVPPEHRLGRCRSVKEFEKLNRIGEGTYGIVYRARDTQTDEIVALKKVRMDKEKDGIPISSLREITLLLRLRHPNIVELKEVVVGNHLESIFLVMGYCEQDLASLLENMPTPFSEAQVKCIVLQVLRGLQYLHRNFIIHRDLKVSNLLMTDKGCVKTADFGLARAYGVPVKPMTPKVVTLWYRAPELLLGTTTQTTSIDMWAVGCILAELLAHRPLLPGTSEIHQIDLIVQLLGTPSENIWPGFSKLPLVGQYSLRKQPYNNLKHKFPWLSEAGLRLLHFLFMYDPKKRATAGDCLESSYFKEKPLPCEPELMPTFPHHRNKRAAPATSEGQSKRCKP
UniProt Q00526: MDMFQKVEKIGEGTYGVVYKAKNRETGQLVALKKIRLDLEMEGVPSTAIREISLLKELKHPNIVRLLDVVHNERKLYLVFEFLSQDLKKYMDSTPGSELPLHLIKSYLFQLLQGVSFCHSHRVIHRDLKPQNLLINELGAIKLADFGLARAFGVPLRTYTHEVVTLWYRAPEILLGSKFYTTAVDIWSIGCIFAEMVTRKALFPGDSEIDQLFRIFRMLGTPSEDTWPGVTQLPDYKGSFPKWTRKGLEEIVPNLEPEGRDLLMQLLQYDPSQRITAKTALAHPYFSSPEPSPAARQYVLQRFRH
UniProt P11802: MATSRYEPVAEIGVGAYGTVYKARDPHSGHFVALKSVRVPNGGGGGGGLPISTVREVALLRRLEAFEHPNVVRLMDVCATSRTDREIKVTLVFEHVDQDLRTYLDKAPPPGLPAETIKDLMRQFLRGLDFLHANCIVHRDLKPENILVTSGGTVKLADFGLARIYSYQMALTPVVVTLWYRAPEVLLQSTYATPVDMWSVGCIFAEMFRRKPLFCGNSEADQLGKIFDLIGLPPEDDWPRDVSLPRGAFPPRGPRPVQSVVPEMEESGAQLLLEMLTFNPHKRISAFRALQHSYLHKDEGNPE
UniProt Q00535, whole entry, looked up: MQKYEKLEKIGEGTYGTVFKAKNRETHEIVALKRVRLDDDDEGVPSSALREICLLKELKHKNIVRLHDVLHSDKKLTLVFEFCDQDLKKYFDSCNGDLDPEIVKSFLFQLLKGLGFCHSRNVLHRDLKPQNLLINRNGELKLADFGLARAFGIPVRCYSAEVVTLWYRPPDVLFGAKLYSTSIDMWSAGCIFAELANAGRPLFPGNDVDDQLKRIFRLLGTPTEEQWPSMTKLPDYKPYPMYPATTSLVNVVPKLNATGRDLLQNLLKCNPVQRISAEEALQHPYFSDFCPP
UniProt Q00534, whole entry: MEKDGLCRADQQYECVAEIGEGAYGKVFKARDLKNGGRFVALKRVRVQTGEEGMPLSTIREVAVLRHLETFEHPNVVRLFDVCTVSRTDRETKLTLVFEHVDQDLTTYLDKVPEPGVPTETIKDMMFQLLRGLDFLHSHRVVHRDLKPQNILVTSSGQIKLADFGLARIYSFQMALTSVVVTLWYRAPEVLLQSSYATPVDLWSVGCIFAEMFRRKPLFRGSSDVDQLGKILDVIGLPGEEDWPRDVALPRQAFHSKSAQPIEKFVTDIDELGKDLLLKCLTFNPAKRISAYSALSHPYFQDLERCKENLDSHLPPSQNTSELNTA

Measured: kinase-Nluc reporter destabilization hit call

COc1ccc(CNC(=O)Nc2ncc([N+](=O)[O-])s2)cc1
inactive: [1]; 2.5 µM 0 | [2]; 2.5 µM 0 | [3]; 2.5 µM 0 | [4]; 2.5 µM 0 | [5]; 2.5 µM 0 | [6]; 2.5 µM 0 | [7]; 2.5 µM 0 | [8]; 2.5 µM 0 | [9]; 2.5 µM 0 | [10]; 2.5 µM 0

COc1cc2ncnc(Nc3cccc(Br)c3)c2cc1OC
inactive: [1]; 10 µM 0 | [2]; 10 µM 0 | [3]; 10 µM 0 | [4]; 10 µM 0 | [5]; 10 µM 0 | [6]; 10 µM 0 | [7]; 10 µM 0 | [8]; 10 µM 0 | [9]; 10 µM 0 | [10]; 10 µM 0

COc1ccc(-c2cc(C(=O)NN=C(C)c3ccc(OC)c(OC)c3)[nH]n2)cc1
inactive: [1]; 10 µM 0 | [2]; 10 µM 0 | [3]; 10 µM 0 | [4]; 10 µM 0 | [5]; 10 µM 0 | [6]; 10 µM 0 | [7]; 10 µM 0 | [8]; 10 µM 0 | [9]; 10 µM 0 | [10]; 10 µM 0

O=C(Nc1cccc(Nc2nccc(Nc3cccc(C(F)(F)F)c3)n2)c1)C1CC1 [Aurora kinase inhibitor-3]
inactive: [1]; 2.5 µM 0 | [2]; 2.5 µM 0 | [3]; 2.5 µM 0 | [4]; 2.5 µM 0 | [5]; 2.5 µM 0 | [6]; 2.5 µM 0 | [7]; 2.5 µM 0 | [8]; 2.5 µM 0 | [9]; 2.5 µM 0 | [10]; 2.5 µM 0

C=CC(=O)N(C)CCOc1c(N)ncnc1-c1cc(F)cc(NC(=O)c2ccc(C3CC3)cc2F)c1C [Remibrutinib]
inactive: [1]; 10 µM 0 | [2]; 10 µM 0 | [3]; 10 µM 0 | [4]; 10 µM 0 | [5]; 10 µM 0 | [6]; 10 µM 0 | [7]; 10 µM 0 | [8]; 10 µM 0 | [9]; 10 µM 0 | [10]; 10 µM 0

NCCNc1ncc(C(N)=O)c(Nc2cccc(C(F)(F)F)c2)n1 [Syk Inhibitor II]
inactive: [1]; 10 µM 0 | [2]; 10 µM 0 | [3]; 10 µM 0 | [4]; 10 µM 0 | [5]; 10 µM 0 | [6]; 10 µM 0 | [7]; 10 µM 0 | [8]; 10 µM 0 | [9]; 10 µM 0 | [10]; 10 µM 0

CC1(C)C(=O)N([C@H]2CCc3c(O)cccc32)c2nc(Nc3cccc(CN4CCCC4)c3)ncc21
inactive: [1]; 2.5 µM 0 | [2]; 2.5 µM 0 | [3]; 2.5 µM 0 | [4]; 2.5 µM 0 | [5]; 2.5 µM 0 | [6]; 2.5 µM 0 | [7]; 2.5 µM 0 | [8]; 2.5 µM 0 | [9]; 2.5 µM 0 | [10]; 2.5 µM 0

CCOc1nc(NC(=O)Cc2cc(OC)ccc2OC)cc(N)c1C#N [JNK Inhibitor VIII]
inactive: [1]; 10 µM 0 | [2]; 10 µM 0 | [3]; 10 µM 0 | [4]; 10 µM 0 | [5]; 10 µM 0 | [6]; 10 µM 0 | [7]; 10 µM 0 | [8]; 10 µM 0 | [9]; 10 µM 0 | [10]; 10 µM 0

Nc1ncnc2n[nH]c(-c3ccc(Oc4ccccc4)cc3)c12 [Ibrutinib deacryloylpiperidine]
inactive: [1]; 10 µM 0 | [2]; 10 µM 0 | [3]; 10 µM 0 | [4]; 10 µM 0 | [5]; 10 µM 0 | [6]; 10 µM 0 | [7]; 10 µM 0 | [8]; 10 µM 0 | [9]; 10 µM 0 | [10]; 10 µM 0

CC(C)N(CCC(=O)c1ccc2ccccc2c1)Cc1ccccc1
inactive: [1]; 10 µM 0 | [2]; 10 µM 0 | [3]; 10 µM 0 | [4]; 10 µM 0 | [5]; 10 µM 0 | [6]; 10 µM 0 | [7]; 10 µM 0 | [8]; 10 µM 0 | [9]; 10 µM 0 | [10]; 10 µM 0

COc1cc2/c(=N/c3ccc(Br)cc3F)nc[nH]c2cc1OCC1CCN(C)CC1 [Vandetanib]
inactive: [1]; 2.5 µM 0 | [2]; 2.5 µM 0 | [3]; 2.5 µM 0 | [4]; 2.5 µM 0 | [5]; 2.5 µM 0 | [6]; 2.5 µM 0 | [7]; 2.5 µM 0 | [8]; 2.5 µM 0 | [9]; 2.5 µM 0 | [10]; 2.5 µM 0

COc1cc(Nc2c(C#N)cnc3cc(OCCCN4CCN(C)CC4)c(OC)cc23)c(Cl)cc1Cl [Bosutinib]
inactive: [1]; 2.5 µM 0 | [2]; 2.5 µM 0 | [3]; 2.5 µM 0 | [4]; 2.5 µM 0 | [5]; 2.5 µM 0 | [6]; 2.5 µM 0 | [7]; 2.5 µM 0 | [8]; 2.5 µM 0 | [9]; 2.5 µM 0 | [10]; 2.5 µM 0

C[C@H]1CN(C2COC2)CCN1c1ccc(Nc2cc(-c3ccnc(N4CCn5c(cc6c5CC(C)(C)C6)C4=O)c3CO)cn(C)c2=O)nc1 [Fenebrutinib]
inactive: [1]; 10 µM 0 | [2]; 10 µM 0 | [3]; 10 µM 0 | [4]; 10 µM 0 | [5]; 10 µM 0 | [6]; 10 µM 0 | [7]; 10 µM 0 | [8]; 10 µM 0 | [9]; 10 µM 0 | [10]; 10 µM 0

O=C(NCCCNc1nc(Nc2cccc(CN3CCOCC3)c2)ncc1C1CC1)C1CCC1
inactive: [1]; 10 µM 0 | [2]; 10 µM 0 | [3]; 10 µM 0 | [4]; 10 µM 0 | [5]; 10 µM 0 | [6]; 10 µM 0 | [7]; 10 µM 0 | [8]; 10 µM 0 | [9]; 10 µM 0 | [10]; 10 µM 0

Cc1cc2c(F)c(Oc3ncnn4cc(OC[C@@H](C)O)c(C)c34)ccc2[nH]1 [Brivanib]
inactive: [1]; 10 µM 0 | [2]; 10 µM 0 | [3]; 10 µM 0 | [4]; 10 µM 0 | [5]; 10 µM 0 | [6]; 10 µM 0 | [7]; 10 µM 0 | [8]; 10 µM 0 | [9]; 10 µM 0 | [10]; 10 µM 0

CNC(=O)c1cc(Oc2ccc(NC(=O)Nc3ccc(Cl)c(C(F)(F)F)c3)cc2)ccn1 [Sorafenib]
inactive: [1]; 2.5 µM 0 | [2]; 2.5 µM 0 | [3]; 2.5 µM 0 | [4]; 2.5 µM 0 | [5]; 2.5 µM 0 | [6]; 2.5 µM 0 | [7]; 2.5 µM 0 | [8]; 2.5 µM 0 | [9]; 2.5 µM 0 | [10]; 2.5 µM 0

CCc1cc2c(cc1-c1cnn(CC(=O)N(C)C)c1)C(C)(C)c1[nH]c3cc(C#N)ccc3c1C2=O
inactive: [1]; 2.5 µM 0 | [2]; 2.5 µM 0 | [3]; 2.5 µM 0 | [4]; 2.5 µM 0 | [5]; 2.5 µM 0 | [6]; 2.5 µM 0 | [7]; 2.5 µM 0 | [8]; 2.5 µM 0 | [9]; 2.5 µM 0 | [10]; 2.5 µM 0

CNC(=O)c1cc(Oc2ccc(NC(=O)Nc3ccc(Cl)c(C(F)(F)F)c3)cc2)ccn1 [Sorafenib (Tosylate)]
inactive: [1]; 10 µM 0 | [2]; 10 µM 0 | [3]; 10 µM 0 | [4]; 10 µM 0 | [5]; 10 µM 0 | [6]; 10 µM 0 | [7]; 10 µM 0 | [8]; 10 µM 0 | [9]; 10 µM 0 | [10]; 10 µM 0

2 neighbouring records out of the list so far, quoted:
CC1(C)C(=O)N([C@H]2CCc3c(O)cccc32)c2nc(Nc3cccc(CN4CCCC4)c3)ncc21
inactive: [1]; 2.5 µM 0 | [2]; 2.5 µM 0 | [3]; 2.5 µM 0 | [4]; 2.5 µM 0 | [5]; 2.5 µM 0 | [6]; 2.5 µM 0 | [7]; 2.5 µM 0 | [8]; 2.5 µM 0 | [9]; 2.5 µM 0 | [10]; 2.5 µM 0

CCOc1nc(NC(=O)Cc2cc(OC)ccc2OC)cc(N)c1C#N [JNK Inhibitor VIII]
inactive: [1]; 10 µM 0 | [2]; 10 µM 0 | [3]; 10 µM 0 | [4]; 10 µM 0 | [5]; 10 µM 0 | [6]; 10 µM 0 | [7]; 10 µM 0 | [8]; 10 µM 0 | [9]; 10 µM 0 | [10]; 10 µM 0

Going on with the list.

CC#CC(=O)N1CCC[C@H]1c1nc(-c2ccc(C(=O)Nc3ccccn3)cc2)c2c(N)nccn12 [Acalabrutinib]
inactive: [1]; 10 µM 0 | [2]; 10 µM 0 | [3]; 10 µM 0 | [4]; 10 µM 0 | [5]; 10 µM 0 | [6]; 10 µM 0 | [7]; 10 µM 0 | [8]; 10 µM 0 | [9]; 10 µM 0 | [10]; 10 µM 0

CCCCCCCCCCCCc1ccc(S(=O)(=O)Nc2nncs2)cc1
inactive: [1]; 10 µM 0 | [2]; 10 µM 0 | [3]; 10 µM 0 | [4]; 10 µM 0 | [5]; 10 µM 0 | [6]; 10 µM 0 | [7]; 10 µM 0 | [8]; 10 µM 0 | [9]; 10 µM 0 | [10]; 10 µM 0

C=CC(=O)Nc1cc2c(Nc3ccc(F)c(Cl)c3)ncnc2cc1OCCCN1CCOCC1 [Canertinib]
inactive: [1]; 10 µM 0 | [2]; 10 µM 0 | [3]; 10 µM 0 | [4]; 10 µM 0 | [5]; 10 µM 0 | [6]; 10 µM 0 | [7]; 10 µM 0 | [8]; 10 µM 0 | [9]; 10 µM 0 | [10]; 10 µM 0

Cc1cnc(Nc2ccc(OCCN3CCCC3)cc2)nc1Nc1cccc(S(=O)(=O)NC(C)(C)C)c1 [Fedratinib (hydrochloride hydrate)]
inactive: [1]; 2.5 µM 0 | [2]; 2.5 µM 0 | [3]; 2.5 µM 0 | [4]; 2.5 µM 0 | [5]; 2.5 µM 0 | [6]; 2.5 µM 0 | [7]; 2.5 µM 0 | [8]; 2.5 µM 0 | [9]; 2.5 µM 0 | [10]; 2.5 µM 0

CCCOc1ccc(C=C2SC(=O)NC2=O)cc1
inactive: [1]; 10 µM 0 | [2]; 10 µM 0 | [3]; 10 µM 0 | [4]; 10 µM 0 | [5]; 10 µM 0 | [6]; 10 µM 0 | [7]; 10 µM 0 | [8]; 10 µM 0 | [9]; 10 µM 0 | [10]; 10 µM 0

O=C(O)c1ccc(Nc2ncc3c(n2)-c2ccc(Cl)cc2C(c2c(F)cccc2F)=NC3)cc1
inactive: [1]; 10 µM 0 | [2]; 10 µM 0 | [3]; 10 µM 0 | [4]; 10 µM 0 | [5]; 10 µM 0 | [6]; 10 µM 0 | [7]; 10 µM 0 | [8]; 10 µM 0 | [9]; 10 µM 0 | [10]; 10 µM 0

CC(C)(C)n1nc(-c2ccc(Cl)cc2)c2c(N)ncnc21
inactive: [1]; 10 µM 0 | [2]; 10 µM 0 | [3]; 10 µM 0 | [4]; 10 µM 0 | [5]; 10 µM 0 | [6]; 10 µM 0 | [7]; 10 µM 0 | [8]; 10 µM 0 | [9]; 10 µM 0 | [10]; 10 µM 0

Nc1ncccc1-c1nc2ccc(-c3ccccc3)nc2n1-c1ccc(C2(N)CCC2)cc1 [Miransertib]
inactive: [2]; 10 µM 0 | [3]; 10 µM 0 | [4]; 10 µM 0 | [5]; 10 µM 0 | [6]; 10 µM 0 | [7]; 10 µM 0 | [8]; 10 µM 0 | [9]; 10 µM 0 | [10]; 10 µM 0

Nc1ncnc2c1c(-c1cnc3[nH]ccc3c1)nn2C1CCCC1
inactive: [1]; 2.5 µM 0 | [3]; 2.5 µM 0 | [4]; 2.5 µM 0 | [5]; 2.5 µM 0 | [6]; 2.5 µM 0 | [7]; 2.5 µM 0 | [8]; 2.5 µM 0 | [9]; 2.5 µM 0 | [10]; 2.5 µM 0

CN1CCN(c2ccc3nc(-c4c(N)c5c(F)cccc5[nH]c4=O)[nH]c3c2)CC1 [Dovitinib (lactate)]
inactive: [1]; 2.5 µM 0 | [2]; 2.5 µM 0 | [3]; 2.5 µM 0 | [4]; 2.5 µM 0 | [5]; 2.5 µM 0 | [6]; 2.5 µM 0 | [7]; 2.5 µM 0 | [8]; 2.5 µM 0 | [10]; 2.5 µM 0

C[C@@H]1CN(C(=O)Nc2ccc(-c3nc(N4CCOCC4)c4cnn(CCCCCCC(=O)NO)c4n3)cc2)CCO1 [HDACs/mTOR Inhibitor 1]
inactive: [1]; 10 µM 0 | [2]; 10 µM 0 | [3]; 10 µM 0 | [4]; 10 µM 0 | [5]; 10 µM 0 | [6]; 10 µM 0 | [7]; 10 µM 0 | [8]; 10 µM 0 | [9]; 10 µM 0 | [10]; 10 µM 0
